Measurements: publication PMC5259782, “Allosteric Inhibition of Phosphoenolpyruvate Carboxylases is Determined by a Single Amino Acid Residue in Cyanobacteria” (Scientific Reports, 2017)

Target: T1, SyPEPC (Synechocystis sp. PCC 6803, UniProt P74299)
T1 construct: gene ppc
T1 sequence (P74299 1-1034): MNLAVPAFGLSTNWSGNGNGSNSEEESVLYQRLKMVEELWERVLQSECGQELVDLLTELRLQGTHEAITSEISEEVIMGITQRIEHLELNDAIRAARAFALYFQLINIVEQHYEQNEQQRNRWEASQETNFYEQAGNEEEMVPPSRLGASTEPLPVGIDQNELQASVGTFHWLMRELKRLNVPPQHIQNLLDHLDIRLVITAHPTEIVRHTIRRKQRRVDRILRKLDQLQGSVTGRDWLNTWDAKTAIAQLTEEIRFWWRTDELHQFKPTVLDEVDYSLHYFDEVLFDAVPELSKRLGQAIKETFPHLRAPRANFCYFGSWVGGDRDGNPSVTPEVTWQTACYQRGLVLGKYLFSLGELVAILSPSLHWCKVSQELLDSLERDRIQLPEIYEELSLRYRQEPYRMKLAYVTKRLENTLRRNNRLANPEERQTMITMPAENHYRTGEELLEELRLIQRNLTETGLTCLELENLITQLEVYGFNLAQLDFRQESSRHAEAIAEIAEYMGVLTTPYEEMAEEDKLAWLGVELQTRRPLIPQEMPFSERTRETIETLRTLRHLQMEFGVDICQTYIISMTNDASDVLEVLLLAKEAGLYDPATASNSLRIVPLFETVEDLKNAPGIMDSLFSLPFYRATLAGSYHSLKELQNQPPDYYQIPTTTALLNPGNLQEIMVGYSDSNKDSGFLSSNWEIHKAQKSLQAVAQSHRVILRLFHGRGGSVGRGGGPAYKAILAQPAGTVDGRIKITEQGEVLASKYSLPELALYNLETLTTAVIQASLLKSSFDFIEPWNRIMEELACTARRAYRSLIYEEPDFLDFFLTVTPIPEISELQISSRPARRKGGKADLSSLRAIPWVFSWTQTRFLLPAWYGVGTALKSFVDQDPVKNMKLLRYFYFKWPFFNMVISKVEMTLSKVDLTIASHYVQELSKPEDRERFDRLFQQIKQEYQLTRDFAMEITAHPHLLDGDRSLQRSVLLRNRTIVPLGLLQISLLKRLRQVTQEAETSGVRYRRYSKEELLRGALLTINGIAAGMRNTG
Test: malate dehydrogenase-coupled NADH assay, residual activity
Type: biochemical
Settings: read-out: SyPEPC activity (in vitro)
Source text: malate dehydrogenase-coupled NADH assay, residual activity on SyPEPC

SMILES: O=C(O)CC(O)(CC(=O)O)C(=O)O [citrate]
- activity at 1000 µM: 86.1 ± 6.7%
